The text below walks through data of patent US4204065A, “Soft quaternary surface active agents and method of using same” (Interx Research Corporation, priority 1978, dated 1980).

One data set has as its system S. typhimirum. The data set can be described thus: Minimal inhibitory concentration (MIC), S. typhimirum. It is filed as cell-based. To be noted: pH 7, read-out: Minimal inhibitory concentration (MIC), S. typhimirum.
The test system of another data set is mouse. To be noted: oral vs IP; cited from earlier work.

As for `CCCCCCCCCCCCCCCC[n+]1ccccc1` [Compound 1, cetylpyridinium chloride], the MIC in the data set with S. typhimirum stood at 8 µg/mL. In the data set on mouse, the “LD50 via oral versus I.P. administration” value is on record as “substantially greater”.
